## Primary screen of a compound library

Protein sequences, listed by entry. Tags and fused reporters are not part of them. Residues count along the entry.
UniProt A4I591, 1-473: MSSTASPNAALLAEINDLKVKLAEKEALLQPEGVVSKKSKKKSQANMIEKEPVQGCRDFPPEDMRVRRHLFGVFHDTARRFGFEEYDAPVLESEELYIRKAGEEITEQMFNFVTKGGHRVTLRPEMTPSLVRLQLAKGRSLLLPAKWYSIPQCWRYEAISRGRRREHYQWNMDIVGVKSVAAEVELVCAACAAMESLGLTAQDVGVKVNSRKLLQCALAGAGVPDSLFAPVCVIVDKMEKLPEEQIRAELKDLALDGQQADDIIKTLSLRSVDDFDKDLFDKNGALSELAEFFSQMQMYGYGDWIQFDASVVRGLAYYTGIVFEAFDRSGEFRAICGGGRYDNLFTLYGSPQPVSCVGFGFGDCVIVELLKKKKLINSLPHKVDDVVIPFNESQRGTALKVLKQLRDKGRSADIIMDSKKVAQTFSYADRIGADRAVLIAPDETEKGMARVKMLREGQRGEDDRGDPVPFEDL
UniProt I6X8D2, whole entry: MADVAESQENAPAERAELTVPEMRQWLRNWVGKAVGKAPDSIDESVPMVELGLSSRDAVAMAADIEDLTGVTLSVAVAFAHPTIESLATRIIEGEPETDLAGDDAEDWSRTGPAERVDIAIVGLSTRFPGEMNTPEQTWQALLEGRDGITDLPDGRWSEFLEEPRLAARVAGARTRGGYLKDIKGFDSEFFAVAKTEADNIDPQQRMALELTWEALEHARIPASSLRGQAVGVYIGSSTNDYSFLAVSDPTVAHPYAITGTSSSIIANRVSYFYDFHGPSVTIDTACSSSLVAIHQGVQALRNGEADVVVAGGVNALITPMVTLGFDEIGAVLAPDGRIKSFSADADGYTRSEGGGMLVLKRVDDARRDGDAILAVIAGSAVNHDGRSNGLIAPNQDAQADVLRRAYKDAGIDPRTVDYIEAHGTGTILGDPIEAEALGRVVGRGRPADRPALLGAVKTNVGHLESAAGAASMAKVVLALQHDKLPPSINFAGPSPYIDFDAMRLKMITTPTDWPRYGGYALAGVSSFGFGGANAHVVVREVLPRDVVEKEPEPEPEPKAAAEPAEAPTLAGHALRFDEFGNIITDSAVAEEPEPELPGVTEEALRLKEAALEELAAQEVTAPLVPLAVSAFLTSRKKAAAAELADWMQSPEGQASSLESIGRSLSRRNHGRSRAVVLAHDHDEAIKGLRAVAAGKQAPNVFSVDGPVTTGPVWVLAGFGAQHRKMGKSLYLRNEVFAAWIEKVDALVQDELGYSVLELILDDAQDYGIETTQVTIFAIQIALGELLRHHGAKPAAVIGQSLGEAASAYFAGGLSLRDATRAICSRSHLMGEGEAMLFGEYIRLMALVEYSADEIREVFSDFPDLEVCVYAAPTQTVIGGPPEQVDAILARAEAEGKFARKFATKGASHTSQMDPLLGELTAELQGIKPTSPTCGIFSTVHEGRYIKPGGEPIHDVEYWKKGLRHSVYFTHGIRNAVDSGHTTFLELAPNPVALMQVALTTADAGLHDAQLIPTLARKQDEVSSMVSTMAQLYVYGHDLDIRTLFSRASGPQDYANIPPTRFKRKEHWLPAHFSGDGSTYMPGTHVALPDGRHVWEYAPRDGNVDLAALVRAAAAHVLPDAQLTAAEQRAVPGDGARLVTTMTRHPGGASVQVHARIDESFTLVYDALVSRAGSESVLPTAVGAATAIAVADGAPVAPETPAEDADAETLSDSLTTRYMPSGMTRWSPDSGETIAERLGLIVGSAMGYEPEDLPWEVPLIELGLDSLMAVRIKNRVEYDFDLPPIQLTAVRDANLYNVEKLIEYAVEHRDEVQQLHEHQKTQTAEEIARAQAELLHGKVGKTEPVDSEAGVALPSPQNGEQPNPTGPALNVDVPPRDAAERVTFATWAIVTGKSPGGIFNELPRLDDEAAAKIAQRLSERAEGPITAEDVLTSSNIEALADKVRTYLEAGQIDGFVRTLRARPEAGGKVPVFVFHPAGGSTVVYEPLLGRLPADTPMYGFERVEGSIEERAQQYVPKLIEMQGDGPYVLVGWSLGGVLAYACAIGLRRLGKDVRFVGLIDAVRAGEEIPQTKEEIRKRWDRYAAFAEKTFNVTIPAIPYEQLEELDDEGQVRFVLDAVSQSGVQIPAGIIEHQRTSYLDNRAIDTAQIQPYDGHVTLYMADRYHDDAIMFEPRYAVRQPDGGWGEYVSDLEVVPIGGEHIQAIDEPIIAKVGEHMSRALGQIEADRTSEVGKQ

The values are deposited in ChEMBL (CHEMBL3988442, “University of Dundee, Small-Polar-MMV Screening Library” (2021)).

Each number is a percent effect as filed.
The controls that fix the scale are not given in the record; negative values are as filed.
The compounds are a random part of those screened.
Two or more numbers in one place are separate tests of the same structure; such repeats can differ widely.
A dash means the value is not listed here; it may have been measured.

A: 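Histidine-tRNA ligase, Leishmania infantum (UniProt A4I591). Enzyme assay of histidyl-tRNA synthetase; the read-out is not stated. Compounds at 30 µM. Higher reads as stronger inhibition (inferred: compounds with an IC50 in retests scored well above the rest). The assay is labelled LdHisRS but filed under L. infantum. Size under these conditions: about 69,000 compounds, about 410 of them at 50% or above in at least one test.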
B: 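Enzyme assay of the thioesterase domain of polyketide synthase 13; the read-out is not stated. Target: Polyketide synthase Pks13, Mycobacterium tuberculosis (UniProt I6X8D2). Tested at 30 µM. The record gives no direction; the compounds picked for IC50 retests had high values, so higher reads as stronger inhibition. Size under these conditions: about 67,000 compounds, about 300 of them at 50% or above in at least one test.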
C: 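Cell assay of Leishmania donovani living inside macrophages; the read-out is not stated. Tested at 30 µM. Direction is inferred from retests: higher values go with stronger inhibition. Of about 69,000 compounds tested this way, about 1,000 (1.5%) reached 50% or more in at least one test.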

| Compound | A | B | C |
|---|---|---|---|
| `COc1c(C)cnc(CN(C)C(=O)c2ccc(C3CCCO3)s2)c1C` (stereo unspecified) | 14.17 | -42.82 | 14.95 |
| `Cc1cccc(N2CCC(NC(C)c3cccs3)CC2)n1` (stereo unspecified) | 22.86 | -7.799 | 21.77 |
| `c1cnc(-c2cnc(N3CCSCC3)nc2C2CC2)cn1` | 5.109 | -25.53 | 11.51 |
| `Cc1nc(C)n(CC2CCCCN2Cc2nnc(-c3ccco3)o2)n1` (stereo unspecified) | 2.679 | -0.6716 | 11.59 |
| `O=S1(=O)C[C@@H]2[C@H](C1)N(Cc1cc(F)cc(F)c1)CCN2CCO` | 14.29 | - | - |
| `CCC(C(=O)NCc1ccncc1)N(c1cccc(Cl)c1)S(C)(=O)=O` (stereo unspecified) | 3.125 | -31.03 | 8.681 |
| `O=C(C[C@H]1[C@H]2CN(C(=O)Cc3ccccn3)C[C@@H]12)Nc1cccnc1` | 18.42 | 15.12 | - |
| `Cc1cc(C)n(CC2CCN(CC(O)Cn3cccn3)CC2)n1` (stereo unspecified) | 13.33 | -12.28 | 8.857 |
| `CCCn1nnnc1CN(c1ccc(C)cc1)C(C)C` | 7.692 | -30.65 | 14.11 |
| `Cc1cc(C2CCC2)nc(N(C)Cc2cc(-c3ccccn3)no2)n1` | 8.571 | -26.28 | 41.24 |
| `[H][C@@]12CS(=O)(=O)C[C@]1([H])N(S(=O)(=O)N1CCCC1)CCN2Cc1ccccc1` | - | - | -4.08 |
| `CCn1nc(C)c2nc(C(C)C)nc(NCCc3ccc(O)cc3)c21` | 5.172 | -66.97 | 18.35 |
| `[H][C@]12CC[C@]([H])(CN(Cc3ccccc3)C1)N(Cc1nnc(C3CC3)o1)C2` | - | - | 5.065 |
| `CC(C)(O)CCc1ccc(C(=O)N2CCN(CCS(C)(=O)=O)CC2)cc1` | 14.58 | -12.55 | -5.178 |
| `O=C(NCC1CC1)c1nnc2ccc(Cl)cc2n1` | 31.03 | -4.552 | 16.49 |
| `O=C(NCCc1c[nH]cn1)c1ccc(S(=O)(=O)NC2CCCC2)cc1` | 11.48 | -35.05 | 14.99 |
| `COCC(=O)N1CCCCC1c1ccnc(Nc2ncc(C)s2)n1` (stereo unspecified) | 12 | 3.065 | 8.475 |
| `COC1CCC(N(C)c2ccnc(N(C)C)n2)CC1` (stereo unspecified) | 1.333 | -24.37 | 8.961 |
| `Cc1cc(C)n(CC2CN(Cc3cscn3)CCO2)n1` (stereo unspecified) | 10.4 | -12.31 | -4.624 |
| `CN(C)c1nccc(N2CCO[C@H]3CN(CC4CCOCC4)C[C@H]32)n1` | 17.14 | - | - |
| `COCc1cccc(S(=O)(=O)N2CCSCC2)c1` | 10.34 | -9.064 | -54.45 |
| `O=C(c1csc(-c2ccccn2)n1)N1CCCC1Cn1cccn1` (stereo unspecified) | 13.39 | -23.84 | 16.75 |
| `COCCN1C(=O)CO[C@H]2CN(Cc3ccccc3OC)C[C@H]21` | 11.11 | -15.1 | - |
| `COc1cc(C(=O)N(C)C(C)Cc2cc(C)ccn2)ccn1` (stereo unspecified) | 18 | -1.33 | -11.07 |
| `COCCN1CC[C@@H]2O[C@H](COCc3csc(C)n3)CC[C@@H]21` | 5.882 | -5.733 | - |
| `COc1cc(Oc2ccc(C#N)cn2)ccc1CN1CCCC1` | 19.67 | 0.7523 | 2.326 |
| `CCc1nnc2n1CCN(C(=O)CCOc1cc(C)ccc1C)C2` | 22.83 | -3.771 | 0.5442 |
| `Cc1ccc(C(O)CNCCn2cccn2)cc1C` (stereo unspecified) | 14.86 | -17.76 | -18.83 |
| `CCc1noc(CC)c1CC(=O)N1CCCC(N2CCCCC2)C1` (stereo unspecified) | 14.29 | -4.099 | 29.11 |
| `CN(Cc1ccccc1-n1cccn1)C[C@@H]1CCCN2CCCC[C@H]12` | 11.11 | 1.725 | - |
| `Cc1n[nH]c(C2CN(C(=O)c3ccon3)CCO2)n1` (stereo unspecified) | 8 | -3.704 | 16.85 |
| `O=C(O)C(F)(F)F.[H][C@@]12COC[C@]1([H])[C@@H](OCc1csc(C)n1)CN2C(=O)c1cnoc1C` | - | - | 6.994 |
| `CN(C)Cc1nc(C(C)(C)NC(=O)c2cccc3ccccc23)no1` | 3.226 | 12.18 | -12.73 |
| `CCc1nccn1C1CCCN(C(=O)c2ccc(NC3CC3)nc2)C1` (stereo unspecified) | 5.357 | -6.134 | 39.29 |
| `CCOC(=O)c1nc(COc2ccc(CC(N)=O)cc2)no1` | 9.89 | -13.87 | 48.43 |
| `CN1C(=O)COc2ccc(C(=O)Cn3cnc4ccccc4c3=O)cc21` | 19.57 | -11.83 | -15.45 |
| `CC(=O)N1CC(c2ncn(C(C)C)n2)c2cc(C(=O)NC3CC3)ccc21` (stereo unspecified) | -6.195 | 2.763 | 3.733 and -10.67 |
| `c1ccc(CN2CCC3(CC2)CCN(Cc2cccnc2)C3)nc1` | 14 | -11.17 | - |
| `Cc1nn(CC(F)F)c2c1c(C(F)F)cc(=O)n2CC(=O)O` | -1.724 | -8.277 | -4.895 |
| `CC(C)c1ccccc1OCCNC(=O)N1CCC(CC(N)=O)CC1` | 3.109 | -40.53 | 16.4 |
| `CCN1CCOC(CNCc2ccccn2)C1` (stereo unspecified) | -34.85 | -14.16 | 20.27 |
| `COCCN1CCc2ncc(CN(C)C)n2CC1` | 8.547 | -25.06 | 18.82 |
| `Cc1noc(C)c1S(=O)(=O)N1CCc2nc(C3CCNCC3)ncc2C1.Cl` | - | - | -9.159 |
| `O=C(Cc1cccs1)N1CCOC(c2cccc(O)c2)C1` (stereo unspecified) | 7.042 | -28.49 | 14.6 |
| `CC(c1nc(C2CC2)no1)N1CCN(CCCN2CCCC2=O)CC1` (stereo unspecified) | 10.71 | -4.544 | 18.7 |
| `O=C(C1CC1)N1C[C@H]2CCCN(S(=O)(=O)c3ccc(Cl)s3)[C@H]2C1` | 14.18 | 18.58 | - |
| `CCOc1ncccc1NC(=O)N1CCN(CC(=O)NC)CC1` | 27.52 | -7.809 | 6.555 |
| `O=C(C1=CCCC1)N1C[C@H]2CCC[C@@]2(COCc2ccncc2)C1` | 25.66 | - | - |
| `O=C1CCC(c2ccc(Cl)cc2)=NN1CN1CCSCC1` | 7.5 | 3.109 | 35.07 |
| `CC(C)(C)SCCN1CC(=O)N2CC[C@@H](O)C[C@H]2C1=O` | 10.59 | -9.489 | - |
| `COCCCN1Cc2cccc(NC(=O)c3ccccc3Cl)c2C1` | 22.32 | -33.14 | -9.876 |
| `CCc1nc(CN(C)C2CCN(Cc3ccc(C#N)cc3F)C2)no1` (stereo unspecified) | 4.762 | -3.603 | 15.2 |
| `O=C(CC1CC1)N[C@@H]1CN(Cc2ccco2)C[C@@H]2CCCO[C@@H]21` | 17.14 | 8.792 | - |

The first 7 entries again:

- COc1c(C)cnc(CN(C)C(=O)c2ccc(C3CCCO3)s2)c1C (stereo unspecified) : A: 14.17%; B: -42.82%; C: 14.95%
- Cc1cccc(N2CCC(NC(C)c3cccs3)CC2)n1 (stereo unspecified) : A: 22.86%; B: -7.799%; C: 21.77%
- c1cnc(-c2cnc(N3CCSCC3)nc2C2CC2)cn1 : A: 5.109%; B: -25.53%; C: 11.51%
- Cc1nc(C)n(CC2CCCCN2Cc2nnc(-c3ccco3)o2)n1 (stereo unspecified) : A: 2.679%; B: -0.6716%; C: 11.59%
- O=S1(=O)C[C@@H]2[C@H](C1)N(Cc1cc(F)cc(F)c1)CCN2CCO : A: 14.29%
- CCC(C(=O)NCc1ccncc1)N(c1cccc(Cl)c1)S(C)(=O)=O (stereo unspecified) : A: 3.125%; B: -31.03%; C: 8.681%
- O=C(C[C@H]1[C@H]2CN(C(=O)Cc3ccccn3)C[C@@H]12)Nc1cccnc1 : A: 18.42%; B: 15.12%